From paper PMC3281933
These are yes or no findings as the source states them, for the method shown. In cells and extracts the contact can be indirect. For some assays here: Binding can be weak; no strength is given.

Legend:
[1] = target: T1, CCN1 (CYR61) (human (endogenous in 1064Sk human skin fibroblasts)) (UniProt O00622); experiment: co-IP; lysate of human skin fibroblasts (IP buffer: 20 mM Tris-HCl pH 7.5, 150 mM NaCl, 1 mM MgCl2, 1 mM CaCl2, 1% Triton X-100) precipitated with rabbit polyclonal anti-CCN1 antibody overnight at 4°C, Protein A/G agarose; 515 kDa LRP1 subunit blotted under non-reducing conditions
T1 sequence: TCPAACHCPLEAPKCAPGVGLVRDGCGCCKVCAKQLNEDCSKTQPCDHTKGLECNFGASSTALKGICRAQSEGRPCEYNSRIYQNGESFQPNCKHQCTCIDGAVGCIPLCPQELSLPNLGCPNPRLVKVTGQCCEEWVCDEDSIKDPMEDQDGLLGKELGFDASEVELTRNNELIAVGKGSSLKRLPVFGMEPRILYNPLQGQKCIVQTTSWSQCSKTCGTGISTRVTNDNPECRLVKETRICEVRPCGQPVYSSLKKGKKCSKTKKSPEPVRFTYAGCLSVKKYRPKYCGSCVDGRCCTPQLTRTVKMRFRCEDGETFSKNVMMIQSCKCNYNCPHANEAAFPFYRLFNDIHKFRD

[2] = target: T1, CCN1 (CYR61) (human (endogenous in 1064Sk human skin fibroblasts)); experiment: condition: only after pre-incubation of cells with 1 µM RAP; co-IP; as a1, but 1 µM recombinant RAP added to the medium and incubated with the cells for 30 min before cell lysis

- binding [1]: binds
- binding [2]: no binding
Substance: low density lipoprotein receptor-related protein 1 (LRP1)
